Data taken from patent US11028369B2, “Induced extended pluripotent stem cells, method of making and using” (Beihao Stem Cell and Regenerative Medicine Research …, priority 2015, dated 2021).
Where a name gives a salt, the structure may show the parent alone. At least one compound was matched to its structure with a doubt left.

How the values were obtained:
[1] = system: primed hES/hPS H9 cells; experiment: Screen for dome-shaped hES colony formation / TGFβ signaling-independent self-renewal; format: cell-based, human; details: hLIF+2i + candidate with SB431542
From the text: Primed hES are flat colonies. By contrast, naïve human pluripotent cells are dome-shaped colonies. Therefore, any resultant human EPS cells can be morphologically distinguished from primed human pluripotent stem cells.
Positive candidates from the first screen above were further screened in order to identify small molecules that support TGFβ signaling-independent self-renewal of hES cells (Tesar, et al., Dev., 448:196-199 (2007); James, et al.,Dev., 132:1273-1282 (2005); Vallier, et al., J. Cell. Sci., 118:4495-4509 (2005)). A TGFβ inhibitor SB431542 was added to the chemical cocktail (2i+LIF+candidate) at the later stage of treatment (FIG. 1A).
Specifically, primed hES/hPS H9 cells were digested into single cells using ACCUTASE® (cell detachment solution), and seeded into a matrigel-coated 24-well plate (1×10^4 cells per well) on day 0 in conventional hES medium plus Y27632. On day 1, the conventional hES medium was replaced by the N2B27 medium supplemented with the hLIF+2i base, and candidates from the first round screen were added individually into each well. The medium was changed every two days and replaced with fresh N2B27 medium supplemented with hLIF+2i. 6 days later (i.e., on day 7), a TGF (transforming growth factor) β inhibitor, SB431542 (10 μm, Tocris), was added into wells with un-differentiated cells for another 6 days. […]

[2] = system: hEPS cells; experiment: Maintenance of hEPS cells after withdrawal or replacement of DiM or MiH; format: cell-based, human
Method: FIGS. 4A and 4B show the profiles of H3K4me3 and H3K27me3 chromatin marks over all genes in primed hES (n=2, technical replicates) and hEPS (n=2, technical replicates) cells. The standard error of mean (SEM) across the regions is calculated and shown as a semi-transparent shade around the mean curve. FIGS. 4C-D are bar graphs showing Q-PCR analysis of selected gene expression in hEPS cells under different conditions at passage 7. […]
Human and mouse extended pluripotent stem cells were cultured in serum-free N2B27-LCDM medium in 20% O2, 5% CO2 conditions. To maintain human EPS cells in an undifferentiated state, the following criteria were used: a) avoidance of plating human EPS cells too sparsely; b) use of the proper quantity of freshly prepared MEF feeder cells; and c) not allowing human EPS cells to overgrow (for example, attain more than 90% confluence; preferably, the cells should be at less than 90% confluent). […] Passage numbers of EPS cells indicate number of passages counted after the acquirement of the extended pluripotent state. […]

[3] = system: mEPS cells; experiment: Chimeric analysis of mEPS cells cultured under different conditions (injection into 8-cell embryos); format: cell-based, mouse; details: chimeric blastocysts
Method: FIGS. 6A and 6B show PCA of RNA-seq and microarray data from EPS cells and known pluripotent cell types. […] Data were normalized to mES cells in each study. […] Data were normalized to primed hPSCs in each study. […] Circles: RNA-seq data; triangles: microarray data. […] Parp1 knockout mEPS cells (Parp1-KO) were cultured in LCDM condition without MiH (-MiH). mEPS cells were cultured under different conditions for at least 5 passages before injection. Multiple cells were injected into 8-cell embryos, which were cultured for additional 60 hours before further analysis. […] ICM & TE, embryos with the integration of mouse cells into both ICM and TE. […] ICM & TE, embryos with the integration of mouse cells into both ICM and TE. TH: TripelennamineHCL; DES: Desloratadine; NAM: Nicotinamide. PD: PD0325901; SB: SB203580; SP: SP600125.
For injection of Tdtomato-labeled mEPS cells and conventional naïve mouse ES cells, mEPS and naïve mouse ES cells were trypsinized and microinjected in the same way as for hEPS cells except that Y27632 was not added into the suspension.
The cells used in this experiment were cultured and prepared in a way that was similar to that of the multiple-cell microinjections. The cell suspension was placed on ice for 20-30 minutes before injection. […]

[4] = withdrawal of either DiM or MiH

Structure (SMILES) | dome-shaped hES colony formation [1] | effect of withdrawal from LCDM on hEPS cells [2, 4] | effect of withdrawal from LCDM on developmental potency of mEPS cells [3, 4] | maintenance of hEPS cells when DiM is replaced by MAPK signaling inhibitor ([2]; replacement of DiM) | developmental potency of mEPS cells when DiM is replaced by MAPK signaling inhibitor ([3]; replacement of DiM)
CN(C)c1ccc(O)c2c1C[C@H]1C[C@H]3[C@H](N(C)C)C(O)=C(C(N)=O)C(=O)[C@@]3(O)C(O)=C1C2=O [MiH, Minocycline hydrochloride] | support dome-shaped hES colony formation | rapid differentiation of hEPS cells within days after plating | significantly impaired the developmental potency of mEPS cells | – | –
Oc1c2ccccc2c2c3c(cccc13)N=N2 [SP600125] | – | – | – | could not maintain hEPS cells | could not preserve the developmental potency of mEPS cells
